This is an account of results in the odorant receptor screen of Mainland et al. (2015).

The list shows a part of the results. Each value is one well over the wells without odorant, computed here; the data are noisy.

Test systems include OR1N2 clone 1505; OR1S1 clone 1455; OR1S2 I46T clone 1137; OR2A1 clone 1078; OR2A12 clone 1085; OR2A14 Indel clone 1540; OR2A14 clone 1083; OR2A2 F280L clone 1541; OR2A2 clone 1476; OR2A25 clone 1387; OR2A4 clone 1386; OR2A42 clone 1565; OR2A5 clone 1437; OR2A7 clone 1077; OR2A7 clone 1543; OR2AE1 I77T clone 1079; OR2AG1 clone 1112.
Holding throughout (assay): odorant receptor activation (CRE luciferase / Renilla) (fold of no-odor wells); higher = more activation
What all share (settings): 100 µM

In test [1] the test system is OR1N2 W23R/V230G/T287M clone 1105.
In test [2] the test system is OR1N2 W37R/V244G/T301M clone 1350.
Test [3] relates to OR1Q1 Q24R/I163M clone 1103.

On to `CC/C=C\CCO` [cis-3-hexen-1-ol], for which the odorant receptor activation in test [1] turned out to be 1.01; in [2], 1.15; in the test on OR1N2 clone 1505, 1.03; in test [3], 0.974; with OR1S1 clone 1455, 1.19; with OR1S2 I46T clone 1137 it was 0.955. Further, the odorant receptor activation with OR2A1 clone 1078 amounted to 0.896; with OR2A12 clone 1085 it was 1.03; with OR2A14 Indel clone 1540, 0.906; with OR2A14 clone 1083, 1.19; in the test with OR2A2 F280L clone 1541, 0.832; in the test with OR2A2 clone 1476, 0.881. Besides, the odorant receptor activation with OR2A25 clone 1387 turned out to be 0.255; in the test on OR2A4 clone 1386, 0.188; in the test with OR2A42 clone 1565, 0.937; with OR2A5 clone 1437 it was 0.344; in the test on OR2A7 clone 1077, 0.902; in the test on OR2A7 clone 1543, 0.691. Besides, the figures for the odorant receptor activation in the test on OR2AE1 I77T clone 1079 and in the test on OR2AG1 clone 1112 were 0.84 and 0.793, respectively.
As to `O=C1CCCCCCCCCCCCCCO1` [pentadecalactone], the odorant receptor activation worked out at 0.936 in test [1]; 0.542 in [2]; 0.997 in the test on OR1N2 clone 1505; 1.26 in test [3]; 1.05 with OR1S1 clone 1455; 1.08 in the test on OR1S2 I46T clone 1137. Further, the odorant receptor activation with OR2A1 clone 1078 was determined as 1.07; in the test on OR2A12 clone 1085, 0.75; with OR2A14 Indel clone 1540 it was 0.82; in the test on OR2A14 clone 1083, 0.982; in the test on OR2A2 F280L clone 1541 it was 0.931; in the test with OR2A2 clone 1476, 0.928. In addition, the odorant receptor activation was 1.14 with OR2A25 clone 1387; 1.25 in the test with OR2A4 clone 1386; 0.762 in the test on OR2A42 clone 1565; 1.35 in the test on OR2A5 clone 1437; 0.733 in the test with OR2A7 clone 1077; 0.707 in the test with OR2A7 clone 1543. Moreover, the odorant receptor activation with OR2AE1 I77T clone 1079 stood at 0.888; with OR2AG1 clone 1112, 1.26.
As to `c1cnccn1` [pyrazine], the odorant receptor activation was found to be 1.17 in test [1]; 0.482 in [2]; 1.09 in the test with OR1N2 clone 1505; 1.3 in [3]; 0.939 with OR1S1 clone 1455; 1.05 in the test on OR1S2 I46T clone 1137. Also, the odorant receptor activation with OR2A1 clone 1078 worked out at 1.07; in the test on OR2A12 clone 1085, 0.864; with OR2A14 Indel clone 1540, 0.769; with OR2A14 clone 1083, 1.23; in the test with OR2A2 F280L clone 1541 it was 0.997; in the test with OR2A2 clone 1476, 0.761. For the same molecule, the odorant receptor activation in the test with OR2A25 clone 1387 was 1.11; in the test with OR2A4 clone 1386, 1.32; in the test on OR2A42 clone 1565, 0.857; in the test on OR2A5 clone 1437, 1.19; in the test on OR2A7 clone 1077, 0.66; with OR2A7 clone 1543 it was 0.805. Also, the figures for the odorant receptor activation in the test with OR2AE1 I77T clone 1079 and in the test with OR2AG1 clone 1112 were 1.17 and 0.912, respectively.
In the case of `C=CC(C)(O)CCC=C(C)C` (stereo not given) [linalool], the odorant receptor activation was determined as 1.14 in test [1]; 0.736 in test [2]; 1.02 with OR1N2 clone 1505; 1.27 in [3]; 0.616 with OR1S1 clone 1455; 1.35 in the test on OR1S2 I46T clone 1137. Further, the odorant receptor activation was 1.24 in the test with OR2A1 clone 1078; 1.42 in the test with OR2A12 clone 1085; 1.13 in the test with OR2A14 Indel clone 1540; 1.14 in the test with OR2A14 clone 1083; 0.84 in the test with OR2A2 F280L clone 1541; 1.08 in the test on OR2A2 clone 1476. The odorant receptor activation in the test with OR2A25 clone 1387 was 1.07; in the test with OR2A4 clone 1386 it was 0.775; in the test with OR2A42 clone 1565, 0.849; with OR2A5 clone 1437 it was 1.13; in the test on OR2A7 clone 1077, 1.03; in the test on OR2A7 clone 1543, 0.87. In addition, the odorant receptor activation was found to be 0.986 with OR2AE1 I77T clone 1079 and 0.978 in the test with OR2AG1 clone 1112.
Consider `CCCCO` [1-butanol], for which the odorant receptor activation in [1] stood at 4.67; in test [2], 1.5; with OR1N2 clone 1505 it was 1.17; in test [3] it was 14.5; in the test on OR1S1 clone 1455, 0.782; in the test on OR1S2 I46T clone 1137 it was 1.21. In addition, the odorant receptor activation is 5.32 in the test with OR2A1 clone 1078; 2.67 in the test with OR2A12 clone 1085; 1.26 with OR2A14 Indel clone 1540; 3.1 in the test with OR2A14 clone 1083; 1.18 with OR2A2 F280L clone 1541; 1.1 with OR2A2 clone 1476. For the same molecule, the odorant receptor activation in the test on OR2A25 clone 1387 was found to be 1.08; in the test with OR2A4 clone 1386, 0.776; in the test with OR2A42 clone 1565 it was 0.541; in the test on OR2A5 clone 1437, 0.945; with OR2A7 clone 1077, 3.29; with OR2A7 clone 1543, 1.07. For the same molecule, the odorant receptor activation came out at 22.1 with OR2AE1 I77T clone 1079 and 9.85 in the test with OR2AG1 clone 1112.
For `CCCCCCCC=O` [octyl aldehyde], the odorant receptor activation in test [1] is 1.19; in test [2], 0.903; with OR1N2 clone 1505, 1.09; in test [3], 1.4; in the test with OR1S1 clone 1455, 1.18; in the test on OR1S2 I46T clone 1137, 1.13. The odorant receptor activation in the test on OR2A1 clone 1078 came to 1.14; in the test on OR2A12 clone 1085, 1.22; in the test on OR2A14 Indel clone 1540 it was 0.891; with OR2A14 clone 1083, 1.29; with OR2A2 F280L clone 1541, 0.831; in the test with OR2A2 clone 1476, 0.999. In addition, the odorant receptor activation is 0.929 in the test with OR2A25 clone 1387; 0.909 in the test with OR2A4 clone 1386; 0.848 in the test on OR2A42 clone 1565; 0.72 in the test on OR2A5 clone 1437; 0.817 with OR2A7 clone 1077; 0.798 in the test on OR2A7 clone 1543. The odorant receptor activation in the test with OR2AE1 I77T clone 1079 is 1.06; with OR2AG1 clone 1112, 1.15.
Regarding `CC(=O)C(C)=O` [diacetyl], the odorant receptor activation turned out to be 0.958 in test [1]; 1.23 in [2]; 1.17 in the test on OR1N2 clone 1505; 0.999 in test [3]; 0.859 in the test on OR1S1 clone 1455; 1.14 in the test on OR1S2 I46T clone 1137. For the same molecule, the odorant receptor activation in the test with OR2A1 clone 1078 is 0.782; in the test on OR2A12 clone 1085, 0.969; in the test on OR2A14 Indel clone 1540 it was 1.31; in the test with OR2A14 clone 1083 it was 0.994; in the test on OR2A2 F280L clone 1541, 1.35; in the test on OR2A2 clone 1476, 1.35. The odorant receptor activation turned out to be 1.17 with OR2A25 clone 1387; 1.13 in the test on OR2A4 clone 1386; 0.789 in the test with OR2A42 clone 1565; 1.55 in the test with OR2A5 clone 1437; 0.963 with OR2A7 clone 1077; 1.06 in the test on OR2A7 clone 1543. Besides, the odorant receptor activation with OR2AE1 I77T clone 1079 stood at 1.04; in the test on OR2AG1 clone 1112, 1.06.
